Measurements reported in PubChem BioAssay AID1671195 (Yale University, 2021)
In all, the deposit lists about 22,000 reagents; shown is a part drawn at random. About 1,510 of all reagents (6.9%) count as active. 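Active includes knockdowns raising or lowering LDL uptake; positive z-scores mean more uptake, negative mean less.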

Aim: 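Regulators of LDL receptor activity judged by labelled LDL uptake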 (primary screen)
System: human Huh7 hepatoma cells
Knock-down reagent: siRNA pool against human genes, 18 nM
Duration: about 2 to 2.5 days of knockdown, then 8 h LDL uptake
Challenge: DiI-labelled LDL at 30 µg/ml for 8 h, in lipoprotein-deficient serum medium
Detection: 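Per-cell DiI-LDL intensity by automated imaging; well means scaled to the plate median and given as a robust z-score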
Direction: robust z-score: higher = more LDL uptake after knockdown
Rule for the call: 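a gene counts as active if at least two replicate z-scores exceed ±2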

{"Target gene": "OTUD6B (OTU deubiquitinase 6B)", "robust z-score, replicate 1": -2.06, "robust z-score, replicate 2": -0.438, "robust z-score, replicate 3": -1.46, "Outcome": "inactive"}
{"Target gene": "CASP10 (caspase 10)", "robust z-score, replicate 1": 0.763, "robust z-score, replicate 2": 1.1, "robust z-score, replicate 3": 1.51, "Outcome": "inactive"}
{"Target gene": "PGM3 (phosphoglucomutase 3)", "robust z-score, replicate 1": 0.508, "robust z-score, replicate 2": 1.38, "robust z-score, replicate 3": 0.375, "Outcome": "inactive"}
{"Target gene": "SCYL3 (SCY1 like pseudokinase 3)", "robust z-score, replicate 1": 0.71, "robust z-score, replicate 2": 0.801, "robust z-score, replicate 3": 0.756, "Outcome": "inactive"}
{"Target gene": "FBXL9P (F-box and leucine rich repeat protein 9, pseudogene)", "robust z-score, replicate 1": -0.0872, "robust z-score, replicate 2": -1.32, "robust z-score, replicate 3": -1.96, "Outcome": "inactive"}
{"Target gene": "USP13 (ubiquitin specific peptidase 13)", "robust z-score, replicate 1": 0.0245, "robust z-score, replicate 2": -0.451, "robust z-score, replicate 3": -0.0196, "Outcome": "inactive"}
{"Target gene": "PPEF2 (protein phosphatase with EF-hand domain 2)", "robust z-score, replicate 1": -0.315, "robust z-score, replicate 2": 1, "robust z-score, replicate 3": -1.16, "Outcome": "inactive"}
{"Target gene": "TEX13A (testis expressed 13A)", "robust z-score, replicate 1": 0.596, "robust z-score, replicate 2": -0.741, "robust z-score, replicate 3": 0.768, "Outcome": "inactive"}
{"Target gene": "ERI1 (exoribonuclease 1)", "robust z-score, replicate 1": 0.208, "robust z-score, replicate 2": -0.206, "robust z-score, replicate 3": 0.0646, "Outcome": "inactive"}

2 entries from above, reformatted.
PPEF2 (protein phosphatase with EF-hand domain 2): robust z-score, replicate 1 = -0.315; robust z-score, replicate 2 = 1; robust z-score, replicate 3 = -1.16; Outcome = inactive
TEX13A (testis expressed 13A): robust z-score, replicate 1 = 0.596; robust z-score, replicate 2 = -0.741; robust z-score, replicate 3 = 0.768; Outcome = inactive

The list goes on.
{"Target gene": "FLJ44796 (retired record)", "robust z-score, replicate 1": 0.226, "robust z-score, replicate 2": 0.0845, "robust z-score, replicate 3": 0.407, "Outcome": "inactive"}
{"Target gene": "PIGP (phosphatidylinositol glycan anchor biosynthesis class P)", "robust z-score, replicate 1": -1.28, "robust z-score, replicate 2": 0.0278, "robust z-score, replicate 3": 0.307, "Outcome": "inactive"}
{"Target gene": "SLC38A3", "robust z-score, replicate 1": -0.206, "robust z-score, replicate 2": 0.614, "robust z-score, replicate 3": -0.977, "Outcome": "inactive"}
{"Target gene": "CLUL1 (clusterin like 1)", "robust z-score, replicate 1": -1.15, "robust z-score, replicate 2": -0.0593, "robust z-score, replicate 3": 0.298, "Outcome": "inactive"}
{"Target gene": "PBX3 (PBX homeobox 3)", "robust z-score, replicate 1": 0.783, "robust z-score, replicate 2": 0.842, "robust z-score, replicate 3": 1.26, "Outcome": "inactive"}
{"Target gene": "TMT1A (thiol methyltransferase 1A)", "robust z-score, replicate 1": -0.835, "robust z-score, replicate 2": -0.743, "robust z-score, replicate 3": -1.12, "Outcome": "inactive"}
{"Target gene": "UCHL3 (ubiquitin C-terminal hydrolase L3)", "robust z-score, replicate 1": 0.473, "robust z-score, replicate 2": 0.855, "robust z-score, replicate 3": 0.488, "Outcome": "inactive"}
